{"source": "PubChem BioAssay AID1259405 – NCATS | 2018", "purpose": "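Silenced genes that increase secreted GFP made by CHO cells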 (primary screen)", "system": "Chinese hamster CHO-K1 ovary cells with stable secreted eGFP expression", "reagents": "single siRNA against mouse genes, 0.8 pmol siRNA per well (2 µl of 400 nM stock)", "timing": "3 days", "detection": "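Percent of the per-plate non-targeting control median for intracellular GFP per well by laser scanning cytometry and for cell viability by ATP luminescence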", "scale": "GFP, % of control: higher = more GFP per well, higher productivity; viability (ATP), % of control: higher = more viable cells (more ATP)", "active means": "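a knock-down is called active if GFP reaches 120% or more of non-targeting control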", "note": "In all, the deposit lists about 50,000 reagents; shown is a random part of them. About 4,000 of all reagents (8%) count as active. 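Mouse siRNA library applied to hamster cells; one well for each siRNA.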 A number with no mark means an inactive call. Reagents against one gene are numbered here."}
{"target": "Or4n4b (GeneID 258657)", "reagent no.": 1, "GFP, % of control": 74.9, "viability (ATP), % of control": 66.2}
{"target": "Or4n4b (GeneID 258657)", "reagent no.": 2, "GFP, % of control": 38.9, "viability (ATP), % of control": 32.3}
{"target": "Or4n4b (GeneID 258657)", "reagent no.": 3, "GFP, % of control": 75.3, "viability (ATP), % of control": 110}
{"target": "Zc3h8 (GeneID 57432)", "reagent no.": 1, "GFP, % of control": 58.5, "viability (ATP), % of control": 76.1}
{"target": "Zc3h8 (GeneID 57432)", "reagent no.": 2, "GFP, % of control": 69.7, "viability (ATP), % of control": 73.3}
{"target": "Zc3h8 (GeneID 57432)", "reagent no.": 3, "GFP, % of control": 55.3, "viability (ATP), % of control": 94.5}
{"target": "Ildr1 (GeneID 106347)", "reagent no.": 1, "GFP, % of control": 69.6, "viability (ATP), % of control": 51.5}
{"target": "Ildr1 (GeneID 106347)", "reagent no.": 2, "GFP, % of control": "165 (active)", "viability (ATP), % of control": 125}
{"target": "Rspo2 (GeneID 239405)", "reagent no.": 1, "GFP, % of control": 85.1, "viability (ATP), % of control": 71.1}
{"target": "Rspo2 (GeneID 239405)", "reagent no.": 2, "GFP, % of control": 73.7, "viability (ATP), % of control": 88.2}
{"target": "Rspo2 (GeneID 239405)", "reagent no.": 3, "GFP, % of control": 73.4, "viability (ATP), % of control": 63.9}
{"target": "Hrk (GeneID 12123)", "reagent no.": 1, "GFP, % of control": 73.7, "viability (ATP), % of control": 72.3}
{"target": "Hrk (GeneID 12123)", "reagent no.": 2, "GFP, % of control": 82.7, "viability (ATP), % of control": 73.6}

A stretch of the results above, for reference:
{"target": "Rspo2 (GeneID 239405)", "reagent no.": 2, "GFP, % of control": 73.7, "viability (ATP), % of control": 88.2}
{"target": "Rspo2 (GeneID 239405)", "reagent no.": 3, "GFP, % of control": 73.4, "viability (ATP), % of control": 63.9}

The listing continues.
{"target": "BC002059 (GeneID 213811)", "reagent no.": 1, "GFP, % of control": 71.8, "viability (ATP), % of control": 66.4}
{"target": "BC002059 (GeneID 213811)", "reagent no.": 2, "GFP, % of control": 55.9, "viability (ATP), % of control": 73.1}
{"target": "BC002059 (GeneID 213811)", "reagent no.": 3, "GFP, % of control": 72.9, "viability (ATP), % of control": 91.2}
{"target": "Mcm4 (GeneID 17217)", "reagent no.": 1, "GFP, % of control": 74.3, "viability (ATP), % of control": 85.4}
{"target": "Mcm4 (GeneID 17217)", "reagent no.": 2, "GFP, % of control": 70.7, "viability (ATP), % of control": 75.6}
{"target": "Mcm4 (GeneID 17217)", "reagent no.": 3, "GFP, % of control": 76.1, "viability (ATP), % of control": 28.7}
{"target": "Cpsf6 (GeneID 432508)", "reagent no.": 1, "GFP, % of control": 61.8, "viability (ATP), % of control": 59.8}
{"target": "Cpsf6 (GeneID 432508)", "reagent no.": 2, "GFP, % of control": 56.3, "viability (ATP), % of control": 72.9}
{"target": "Cpsf6 (GeneID 432508)", "reagent no.": 3, "GFP, % of control": 93.3, "viability (ATP), % of control": 74.1}
{"target": "Tomm20 (GeneID 67952)", "reagent no.": 1, "GFP, % of control": 80.8, "viability (ATP), % of control": 60.8}
{"target": "Tomm20 (GeneID 67952)", "reagent no.": 2, "GFP, % of control": 105, "viability (ATP), % of control": 68.1}
{"target": "Tomm20 (GeneID 67952)", "reagent no.": 3, "GFP, % of control": "128 (active)", "viability (ATP), % of control": 126}
{"target": "Dlx2 (GeneID 13392)", "reagent no.": 1, "GFP, % of control": 61.9, "viability (ATP), % of control": 54.2}
{"target": "Dlx2 (GeneID 13392)", "reagent no.": 2, "GFP, % of control": 92.6, "viability (ATP), % of control": 102}
{"target": "Dlx2 (GeneID 13392)", "reagent no.": 3, "GFP, % of control": 58.4, "viability (ATP), % of control": 69.9}
{"target": "Tesmin (GeneID 17771)", "reagent no.": 1, "GFP, % of control": 77.6, "viability (ATP), % of control": 89.5}
{"target": "Tesmin (GeneID 17771)", "reagent no.": 2, "GFP, % of control": 73.9, "viability (ATP), % of control": 87.7}
{"target": "Tesmin (GeneID 17771)", "reagent no.": 3, "GFP, % of control": 72.5, "viability (ATP), % of control": 50.3}
{"target": "Or10s1 (GeneID 258853)", "reagent no.": 1, "GFP, % of control": "138 (active)", "viability (ATP), % of control": 62.9}
{"target": "Or10s1 (GeneID 258853)", "reagent no.": 2, "GFP, % of control": 63.5, "viability (ATP), % of control": 79.1}
{"target": "Or10s1 (GeneID 258853)", "reagent no.": 3, "GFP, % of control": 41.8, "viability (ATP), % of control": 69.5}
{"target": "Syne3 (GeneID 212073)", "reagent no.": 1, "GFP, % of control": 93.2, "viability (ATP), % of control": 120}
{"target": "Syne3 (GeneID 212073)", "reagent no.": 2, "GFP, % of control": "127 (active)", "viability (ATP), % of control": 115}
{"target": "Syne3 (GeneID 212073)", "reagent no.": 3, "GFP, % of control": 77.7, "viability (ATP), % of control": 79.1}
{"target": "Klhdc7a (GeneID 242721)", "reagent no.": 1, "GFP, % of control": 44.8, "viability (ATP), % of control": 35.5}
{"target": "Klhdc7a (GeneID 242721)", "reagent no.": 2, "GFP, % of control": 71.6, "viability (ATP), % of control": 72.5}
{"target": "Klhdc7a (GeneID 242721)", "reagent no.": 3, "GFP, % of control": 58.8, "viability (ATP), % of control": 66.9}
